# Assay results from US8673852B2, “Methods of treating neuronal disorders using MNTF peptides and analogs thereof” (Genervon Biopharmaceuticals, LLC, priority 2006, dated 2014).
# At least one compound was matched to its structure with a doubt left.
# Tested on: SH-SY5Y cells
# Assay: Cell culture model of Parkinson's disease: SH-SY5Y cell viability (MTT) with or without salsolinol
# Type: cell-based, human
# Conditions: WRT 10 μM, salsolinol 100 μM
# Protocol: SH-SY5Y cells were purchased from American Type Culture Collection (Manassas, Va.) and cultured in a complete media containing minimum essential media, Hams F-12 media and Hanks Balanced Salt Solution Gibco-BRL) in a ratio of 2:1:1. The media also contained 10% fetal bovine serum along with penicillin (50 U/ml) and streptomycin ([…]). The cells were cultured in flasks and kept in a humidified incubator containing 5% CO2 in air at 37° C. The media was changed every 2-3 days.
# Prior to manipulation, cultures were assigned to different treatment groups based on a randomized block design.
# For cell viability experiments, SH-SY5Y cells (0.5×10^5/well) were cultured in a 96-well cell culture plate and treated with (±) SAL (Sigma, St. Louis, Mo.) alone or along with different concentrations of (GM6) (Genervon), with or without Wortmannin (WRT) (Sigma, St. Louis, Mo.), a phosphatidylinositol-3-kinase (PI-3 kinase) inhibitor, for 24 h. Cell viability was determined by Thiazolyl blue (MTT) assay.
compound,measurement,value
"COC[C@H]1OC(=O)c2coc3c2[C@@]1(C)C1=C(C3=O)[C@@H]2CCC(=O)[C@@]2(C)C[C@H]1OC(C)=O [WRT, Wortmannin, reference compound]",effect of WRT on neuroprotection by GM6,blocked the neuroprotective effects of GM6
